Where two headings read alike, the source gives them in different places. These are yes or no findings as the source states them, for the method shown. Binding seen in cells or lysates may run through a third protein. Some results given as binding are weak or reduced against the parent protein; the word gives no strength. Values belong to the molecule of their own block, whether it stands above or below them.
How the values were obtained:
Test in all cases: proximity ligation
[1] = target: murine IRAK1 with a C-terminal fused mCherry (murine) (UniProt Q62406)
[2] = target: T1, IRAK2 (mouse (endogenous in iBMDMs)) (UniProt Q8CFA1)
T1 sequence: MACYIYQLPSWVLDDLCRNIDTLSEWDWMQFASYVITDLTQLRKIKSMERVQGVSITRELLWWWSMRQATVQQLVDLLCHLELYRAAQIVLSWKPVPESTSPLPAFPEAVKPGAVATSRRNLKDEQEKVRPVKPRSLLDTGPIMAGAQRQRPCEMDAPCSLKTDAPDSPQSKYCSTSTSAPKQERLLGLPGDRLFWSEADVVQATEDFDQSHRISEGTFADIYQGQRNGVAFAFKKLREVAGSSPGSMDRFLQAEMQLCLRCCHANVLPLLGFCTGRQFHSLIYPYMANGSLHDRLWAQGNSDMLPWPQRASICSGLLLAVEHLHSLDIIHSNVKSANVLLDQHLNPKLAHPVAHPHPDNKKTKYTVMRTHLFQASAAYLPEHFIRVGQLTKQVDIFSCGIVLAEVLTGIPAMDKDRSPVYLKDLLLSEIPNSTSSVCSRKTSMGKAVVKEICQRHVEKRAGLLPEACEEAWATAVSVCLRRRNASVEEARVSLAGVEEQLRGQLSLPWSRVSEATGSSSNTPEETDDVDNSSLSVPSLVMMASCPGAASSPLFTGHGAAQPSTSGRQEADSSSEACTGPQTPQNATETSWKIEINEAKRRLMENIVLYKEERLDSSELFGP

The chains behind the UniProt entries cited, without tags or fusion partners.
UniProt Q62406: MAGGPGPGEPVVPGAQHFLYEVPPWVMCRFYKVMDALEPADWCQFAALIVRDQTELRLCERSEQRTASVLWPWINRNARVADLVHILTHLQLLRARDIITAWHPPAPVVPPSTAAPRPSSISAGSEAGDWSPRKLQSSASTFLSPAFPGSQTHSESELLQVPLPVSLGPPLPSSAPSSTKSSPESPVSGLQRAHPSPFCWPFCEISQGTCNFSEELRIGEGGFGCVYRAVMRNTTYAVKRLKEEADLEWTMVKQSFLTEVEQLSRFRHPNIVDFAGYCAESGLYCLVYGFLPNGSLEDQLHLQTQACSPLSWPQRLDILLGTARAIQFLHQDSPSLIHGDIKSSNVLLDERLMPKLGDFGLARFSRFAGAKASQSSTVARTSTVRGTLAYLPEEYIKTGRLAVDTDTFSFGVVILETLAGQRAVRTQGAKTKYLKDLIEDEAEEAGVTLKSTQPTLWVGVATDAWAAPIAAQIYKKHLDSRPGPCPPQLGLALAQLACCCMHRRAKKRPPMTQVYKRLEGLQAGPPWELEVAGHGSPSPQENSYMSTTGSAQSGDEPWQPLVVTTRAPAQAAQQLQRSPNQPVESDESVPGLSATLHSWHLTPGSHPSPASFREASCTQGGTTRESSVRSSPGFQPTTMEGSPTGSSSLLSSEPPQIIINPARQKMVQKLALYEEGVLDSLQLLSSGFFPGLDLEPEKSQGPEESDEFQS
UniProt Q8R4B8: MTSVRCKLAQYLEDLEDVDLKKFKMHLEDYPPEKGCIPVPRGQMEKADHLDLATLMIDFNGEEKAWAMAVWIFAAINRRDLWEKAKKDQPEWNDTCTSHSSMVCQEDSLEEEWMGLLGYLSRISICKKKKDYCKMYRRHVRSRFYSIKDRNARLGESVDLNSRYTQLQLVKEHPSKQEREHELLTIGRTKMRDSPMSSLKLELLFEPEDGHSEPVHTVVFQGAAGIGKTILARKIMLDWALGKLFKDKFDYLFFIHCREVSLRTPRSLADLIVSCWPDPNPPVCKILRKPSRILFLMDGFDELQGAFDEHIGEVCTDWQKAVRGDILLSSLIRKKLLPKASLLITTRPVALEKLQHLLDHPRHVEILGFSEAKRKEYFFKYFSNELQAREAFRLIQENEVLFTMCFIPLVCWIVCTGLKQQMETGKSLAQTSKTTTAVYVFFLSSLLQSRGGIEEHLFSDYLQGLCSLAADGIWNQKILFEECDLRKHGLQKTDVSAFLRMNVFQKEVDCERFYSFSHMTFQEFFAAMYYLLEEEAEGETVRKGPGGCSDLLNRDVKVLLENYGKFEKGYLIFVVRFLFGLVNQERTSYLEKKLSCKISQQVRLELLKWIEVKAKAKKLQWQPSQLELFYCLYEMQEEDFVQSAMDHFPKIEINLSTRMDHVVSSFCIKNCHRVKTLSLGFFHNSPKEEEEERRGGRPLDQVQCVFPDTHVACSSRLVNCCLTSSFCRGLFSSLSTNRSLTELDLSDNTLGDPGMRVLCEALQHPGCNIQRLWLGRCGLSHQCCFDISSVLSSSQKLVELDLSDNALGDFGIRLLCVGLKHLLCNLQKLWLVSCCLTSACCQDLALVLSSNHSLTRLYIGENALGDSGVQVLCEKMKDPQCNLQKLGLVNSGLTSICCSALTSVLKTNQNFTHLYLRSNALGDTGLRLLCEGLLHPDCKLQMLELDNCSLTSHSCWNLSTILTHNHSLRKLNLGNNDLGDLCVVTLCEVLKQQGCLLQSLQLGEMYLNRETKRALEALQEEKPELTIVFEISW

[3] = target: murine IRAK1 with a C-terminal fused mCherry (murine) (UniProt Q62406); remark: listed apart in the source

binding [1]: binds
Molecule: NLRP3 (from UniProt Q8R4B8 1-1033)

binding [2]: binds | binding [3]: binds
B1: TRAF6 (protein, UniProt P70196 1-530)
chain: MSLLNCENSCGSSQSSSDCCAAMAASCSAAVKDDSVSGSASTGNLSSSFMEEIQGYDVEFDPPLESKYECPICLMALREAVQTPCGHRFCKACIIKSIRDAGHKCPVDNEILLENQLFPDNFAKREILSLTVKCPNKGCLQKMELRHLEDHQVHCEFALVNCPQCQRPFQKCQVNTHIIEDCPRRQVSCVNCAVSMAYEEKEIHDQSCPLANIICEYCGTILIREQMPNHYDLDCPTAPIPCTFSVFGCHEKMQRNHLARHLQENTQLHMRLLAQAVHNVNLALRPCDAASPSRGCRPEDPNYEETIKQLESRLVRQDHQIRELTAKMETQSMYVGELKRTIRTLEDKVAEMEAQQCNGIYIWKIGNFGMHLKSQEEERPVVIHSPGFYTGRPGYKLCMRLHLQLPTAQRCANYISLFVHTMQGEYDSHLPWPFQGTIRLTILDQSEALIRQNHEEVMDAKPELLAFQRPTIPRNPKGFGYVTFMHLEALRQGTFIKDDTLLVRCEVSTRFDMGGLRKEGFQPRSTDAGV
